Test results taken from patent publication US12455279B2, “Personalized immunotherapy for rejuvenating activating and strengthening exhausted and dysfunctional T cells, reducing PD-1, and improving immune function” (priority 2018, dated 2025).
Some entries share one result that the patent states for a list of compounds. For some assays here: For at least one compound, name, drawing or mass did not settle the structure.

B1: GnRH-II: neuropeptide (peptide, UniProt O43555 24-120, looked up)
Progonadoliberin-2: QHWSHGWYPGGKRALSSAQDPQNALRPPGRALDTAAGSPVQTAHGLPSDALAPLDDSMPWEGRTTAQWSLHRKRHLARTLLTAAREPRPAPPSSNKV
modifications: Progonadoliberin-2
notes: neuropeptide

Assays:
[1] = test system: CD3+ T cells of liver cancer patients; test: Proliferation / big proliferating T cells / CD25 of CD3+ T cells of liver cancer patients; assay type: cell-based, human; conditions: T cells from patient two
Procedure: Blood was drawn from two patients suffering from liver cancer, patient one and patient two who both suffer from hepatocellular carcinoma. 15 mLs of blood yielded roughly 2.5×10^7 peripheral blood leucocytes, from which approximately […] positive T cells were isolated. The cells were cultured as described above, and the effects of various molecules and their combinations on those T cells were examined.
Cell proliferation was monitored in culture for 60 hours after administration of the molecule/s (FIG. 1).

[2] = test system: PD-1 on T cells of liver cancer patients; test: PD-1 surface expression on T cells of liver cancer patients by FACS; assay type: cell-based, human; conditions: T cells of patient two; 60 hours

Row | Molecule | increase in the percentage of big, proliferating T cells (FIG. 2E) [1] | reduction of PD-1 expression (FIG. 3C) [2]
1 | N[C@@H](CCC(=O)O)C(=O)O [Glutamate] | ≤ 30% | –
2 | B1 | – | ≤ 15%
